# According to PubChem BioAssay AID1508600 (Functional Genomics Laboratory (NCATS/FGL), 2020):
# Hit rate of the full screen: of about 53,000 sequences, about 3,700 (7%) were called active.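 Rule for the calls: active = gene knockdowns whose robust z-score for IL-1 alpha signal is at least 2 or at most -2, so actives lie on both sides; inactive = the rest.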 The list shows a part of the results.
# Experiment: Components of the Cytosolic LPS Sensing Pathway: Gene Identification via Genome-wide siRNA Screen;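 note: robust z of the log signal after scaling to non-targeting control siRNA wells of the plate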
# Settings: RAW264.7 macrophages, IL-1a HTRF, actives lie on both sides, screened at 100 nM (by protocol), cells primed 5 h with Pam3CSK4 first
# Outline: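 Read-out: IL-1a HTRF on supernatant, divided by plate negative-control median ×100, log-transformed and converted to robust z-score. Cells were RAW264.7 given 100 nM siRNA, Pam3CSK4-primed 5 hours, then LipidA-transfected 24 hour.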
row,Sequence,z-score
1,GGUUAAAGGUGCAUUUAAATT against Olfr1448,inactive: -0.717
2,GGGUACAGGACUCAAGAGUTT against 9130230L23Rik,inactive: 0.411
3,UUGUUAUAGCACUUCCAAATT against Vwa3b,active: 2.12
4,GGCCUUCCUUUGUUUUUUUTT against Jup,inactive: -0.227
5,GGAGGUCAUUGUAUGGAACTT against Bpnt2,inactive: 1.04
6,GGCUGAAGAACUCCUACAATT against Dennd1c,active: 2.17
7,GGGCUGUAUUUCUUUACCCTT against Mrgprb2,inactive: 0.508
8,GGAGAAAAUUCAUACCCGATT against Pcgf5,inactive: 1.58
9,GGAGAGACCAGAAUGGUAUTT against Fbxw21,inactive: -1.12
10,GGGAUCUUGGAGAACCAAATT against Slc39a5,inactive: -0.694
11,CCACAAGCUAAUACAUGCUTT against Ubac1,inactive: -1.37
12,GGAGCCUCACUUCUAUCUUTT against Foxk1,inactive: -0.464
13,CCAGGUGUAUAAUAAGAUGTT against Atp8b3,inactive: 0.271
14,CGACCACACAGGGAUAUACTT against Sectm1a,inactive: -0.169
15,GGAUUCAAAGAAAAUCCUGTT against B3galt2,inactive: -0.0494
16,GGGCCAUUUUCGAUGGUAGTT against Hs3st3a1,inactive: 0.243
17,GGAACAAAGAGGUUCUAGGTT against Olfr202,inactive: 0.0754
18,GGACAGACUACACUUCUAUTT against Msto1,inactive: 0.818
19,CCACACUGAGGACUAUAUUTT against Cstf1,inactive: 1.01
20,CCGCCAAAGAUUUUAACCCTT against Dennd10,inactive: 0.186
21,GCACUGAGUACUGCCUCAUTT against Otop3,inactive: -0.185
22,GGGUUCAAAACUAUGGAUATT against Stk26,inactive: 0.575

row,Sequence,z-score
1,GGACCUUGCUAAGAAGUACTT against Nub1,inactive: -0.603
2,GGCGAUAGUGUCUAAGAAATT against Cfap298,inactive: -0.0112
3,GGCCAAUGUCUUCUUCAAGTT against Arpc3,inactive: 0.38
4,CGGUCUGUUCAUAUCUUACTT against Klhl25,inactive: 1.59
5,GGAAGAUCUCAGUGAGCAUTT against Gpcpd1,inactive: 0.69
6,GGUUGCUAGUUUCUGAAAATT against C130074G19Rik,inactive: -1.14
7,GGUGAAUAAAGACCGAGGUTT against Anks6,inactive: -1.58
8,GGUAGAUUUGGAAUAAGCCTT against Gpbp1l1,inactive: -0.621
9,GGCCACUUUACUGUAGCUGTT against Ermard,inactive: 0.49
10,CCGGGACAUAGAGGAAAUUTT against Cabp1,inactive: -0.113
11,CCAUUAGGAUCCCUUAGGGTT against Xkr7,inactive: -1.54
12,CCUUUACUUCACUCUUAGCTT against Trim66,inactive: 0.535
13,CCUUGUUGCUUUCCUAACCTT against Ifit1bl2,inactive: -0.52
14,GCAUACUUAGGAUACACGCTT against A830005F24Rik,inactive: -0.647
15,GCACCAUAUCCUCUGCAUUTT against Slc5a6,inactive: -0.316
16,GCUUCUAGAGACAAAAAAUTT against Mapk8ip3,inactive: -0.514
17,GGGAACUCAGCUUCACCAATT against Trim47,inactive: -1.53
18,GGGACCAUACACUCCAUAUTT against Olfr1507,inactive: -0.284
19,CGGUCAUUAAAACUUACAGTT against Hells,active: 2.69
20,GGCAGCUGAGCAUAAUCCCTT against Tut1,inactive: -1.22
21,GGAGGUUAAGAUUCCAGAGTT against Prune1,inactive: 1.52
22,CCAGUGCGAUUCAAGAUUATT against Glrx,inactive: -0.769

row,Sequence,z-score
1,GCUUUAUUCACUCACUUUCTT against Chsy3,inactive: 0.814
2,GGUGAUUUGUGAAAGGGUGTT against Rnf38,inactive: 0.907
3,GGCUUUCUUAUUUUCCUGUTT against Smim12,inactive: -0.744
4,GCCUGUGGCUUAAACUUCATT against Vat1l,inactive: 0.11
5,CCGGUUUAACUUCAUCAUGTT against Dcaf4,inactive: -1.35
6,GCGGGCCAUAAAGAGACAUTT against Timm17a,inactive: -0.164
7,GGGCAUUUGUGAAAGAACUTT against Mapk1ip1l,inactive: -0.901
8,GGAGGUAUACAGUAAGGAGTT against Fbxo32,inactive: 0.542
9,GCAAAAUUACCAGCUUACUTT against Tox4,inactive: -0.269
10,ACCGGAUCCAUUCACCUACTT against Fxyd1,inactive: -1.22
11,GGCCACAAUGGAUCAGAUGTT against Gldn,inactive: 1.53
12,CCGUAUCAUUUCACUGCUCTT against Abca16,inactive: 0.653
13,GGUCCAAUUUUAUAACAGUTT against Dmtf1,inactive: 0.359
14,CGAGGUCAAUAUCAUUCCATT against Serpinb11,inactive: 0.727
15,GCCUUUAGGUGUCAGUCCUTT against Zfp869,inactive: -0.242
16,CGUCCAUCAAACGAUCACCTT against Alox5,inactive: 0.638
17,CGACCUGUGGGAAGAUAUUTT against Apoa5,inactive: -0.992
18,GGCAUCUCUCCAAUAACCUTT against Fbxw2,inactive: -1.2
19,GGAUGGAGAGAUAAGAAAATT against Lmntd1,inactive: -0.572
20,GGGAAUGUUCUAUAACUCATT against Prep,inactive: 1.34
21,GGUGGAAGUCUCCAAGACATT against Tatdn1,inactive: -0.318
22,GGAUUUAGCCAUGGAUUUCTT against Zfp473,inactive: -1.17

row,Sequence,z-score
1,GGCUGUAACCUCUUCAUCUTT against Celf6,inactive: 1.38
2,GGCCAAAGAAGAAAGUGACTT against Opn3,active: -2.72
3,GGAAGACAGAAAUGAAGAUTT against Enah,inactive: -0.736
4,GGUAUCAUGAUCACUGUUUTT against Slc30a8,inactive: -1.47
5,GGAGCAUUCUCCAUCUAGCTT against Dennd2d,inactive: -1.41
6,GGGUUACACAUCAUUUUGGTT against Golph3,inactive: 1.45
7,GGCCAUUACCCAUGAGACUTT against Cd63,inactive: 0.997
8,GGAACUGGGCAUCAAGUACTT against Hacl1,inactive: -0.801
9,GGGAACAGCCUUCACAAUGTT against Pomt2,inactive: -0.524
10,GGAUCUUUCUUUUCUCUCUTT against Rab6b,inactive: 0.32
11,GGGAAAAUUCCAGAAUUGUTT against Serpinb9c,inactive: -1.37
12,CCGGGAAUAUGACCAGUACTT against Cd3g,inactive: 0.266
13,GGGAAACUGUAUUAAUCUCTT against Foxc1,inactive: 0.103
14,GGUGCUUAAAACAGAAAGATT against Myo9a,inactive: 0.572
15,CCUACAGAGGUGCCAUUGUTT against Naa60,inactive: -0.244
16,GGACCAUCUCUUUCAUUGCTT against Olfr1124,inactive: -1.66
17,GGAACUGCUAAUCAACCAUTT against Zmynd10,active: -2.14
18,GCUCAUAGGCCUCAUCGUUTT against Piwil1,inactive: -0.653
19,GGAUAUCAUAUUUUCUCAGTT against Fam71d,inactive: 0.0644
20,GCAACCGAAAGAUAAAGCCTT against Ctu1,inactive: 0.438
21,GGUCAUUGAUGGCUUUUUUTT against Mus81,inactive: -1.54
22,ACCUUUGUCCUUUUGUUGUTT against Defb15,active: 2.01

# Laid out differently: results already given
row	Sequence	z-score
9	GGGAACAGCCUUCACAAUGTT against Pomt2	inactive: -0.524
10	GGAUCUUUCUUUUCUCUCUTT against Rab6b	inactive: 0.32
11	GGGAAAAUUCCAGAAUUGUTT against Serpinb9c	inactive: -1.37

# Further records.

row,Sequence,z-score
1,GGCACUUUGAUUGUACAAUTT against Dyrk4,inactive: 0.726
2,GGAGCUUAGACAAAAAGCCTT against Spty2d1,inactive: -1.04
3,GGACACAGAUAGAAAUACUTT against Glo1,active: 2.73
4,GGACAGAAAGAUUGUGAUCTT against Arhgap12,inactive: 0.306
5,CGGUCAAGGACAGGAAGUGTT against Eif4b,inactive: 0.518
6,GGAAUCCUCAUUCUGGAUGTT against Abcg8,inactive: 0.462
7,GGCUUUAGGUAGUAGUCUCTT against Kansl2,active: -2.9
8,GGGCCACAGCUUAAUACUGTT against Ptov1,active: 3.28
9,GGCUCAAGGUCUUUUCAACTT against Olfr702,inactive: -0.458
10,CGUUGCACCUCUAUGGCAATT against Podnl1,inactive: -0.527
11,CCUGAAAAGCUAUUGGGUATT against Baat,inactive: -0.196
12,GGUUACUAUGUGAAGAUUUTT against Abra,inactive: 0.769
13,CCUUGAGAAGUUAAACCAUTT against Specc1,inactive: -1.06
14,GCCAAGGAGAUCACACUUATT against Chrnd,inactive: -0.129
15,CCUCAAAAUGGCUAUGGACTT against 1520401A03Rik,inactive: 0.587
16,GCUCAGAAACACCUUCUGGTT against 2310011J03Rik,inactive: 0.866
17,AGCUCCAUCCUAAUGAGGUTT against Klk1b22,inactive: 0.703
18,GCUAACUUGCUCAUGCAAATT against Txlnb,inactive: -0.00758

# A run of entries of the results above:
row,Sequence,z-score
9,GGCUCAAGGUCUUUUCAACTT against Olfr702,inactive: -0.458
10,CGUUGCACCUCUAUGGCAATT against Podnl1,inactive: -0.527
11,CCUGAAAAGCUAUUGGGUATT against Baat,inactive: -0.196
12,GGUUACUAUGUGAAGAUUUTT against Abra,inactive: 0.769
13,CCUUGAGAAGUUAAACCAUTT against Specc1,inactive: -1.06
14,GCCAAGGAGAUCACACUUATT against Chrnd,inactive: -0.129
